Series [1] in a line: general procedure: Fmoc solid-phase peptide synthesis; 2-chlorotrityl (2-CT) resin; BOP/DIPEA. The conditions noted are these: whole synthesis, scale of the general procedure 0.25 mmol.
Series [2] in a line: general procedure: Fmoc solid-phase peptide synthesis; 2-CT; BOP/DIPEA. The conditions noted are these: whole synthesis, over 30 steps, scale 0.25 mmol.

Strings that start with PEPTIDE1 are HELM notation: dots part the residues, brackets hold end groups and non-standard residues.

“PEPTIDE1{[4MeHex].[dS].[dY].[dW].[D-Orn].[Orn].G.[D-Orn].W.T.I.G.S.A}$PEPTIDE1,PEPTIDE1,10:R3-14:R2$$$V2.0” displayed an isolated yield in series [1] (overall) of 9.1%.

On to “PEPTIDE1{[4MeHex].[dS].[dY].[dW].[D-Orn].[Orn].G.[D-Orn].W.T.I.G.S.G}$PEPTIDE1,PEPTIDE1,10:R3-14:R2$$$V2.0”, for which, in series [1] (HPLC and NMR, fractions assessed by HPLC and LC-MS), the “final HPLC purity” value is 95%. For the same substance, the isolated yield in series [1] (over 28 steps) is reported as 5%; in series [1] (overall), 5.4%.

In turn, “PEPTIDE1{[4MeHex].[dS].[dY].[dW].[D-Orn].[Orn].G.[D-Orn].W.T.I.G.S.[dA]}$PEPTIDE1,PEPTIDE1,10:R3-14:R2$$$V2.0” yielded an isolated yield in series [1] (overall) of 9.5%.

Consider “PEPTIDE1{[4MeHex].[dS].[dY].[dW].[D-Orn].[Orn].G.[D-Orn].W.T.I.G.[dS].A}$PEPTIDE1,PEPTIDE1,10:R3-14:R2$$$V2.0”, for which, in series [1] (overall), the isolated yield is on record as 3.2%.

“PEPTIDE1{[4MeHex].[dS].[dY].[dW].[D-Orn].[Orn].G.[D-Orn].W.T.I.G.[dS].G}$PEPTIDE1,PEPTIDE1,10:R3-14:R2$$$V2.0”: in series [1] (overall), the isolated yield is 6.8%.

Take “PEPTIDE1{[4MeHex].[dS].[dY].[dW].[D-Orn].[Orn].G.[D-Orn].W.T.I.G.[dS].[dA]}$PEPTIDE1,PEPTIDE1,10:R3-14:R2$$$V2.0”: the isolated yield in series [1] (overall) stood at 5.7%.

Substance “PEPTIDE1{[4MeHex].[dS].[dY].[dW].[D-Orn].[Orn].G.[D-Orn].W.[Dap].I.G.S.G}$PEPTIDE1,PEPTIDE1,10:R3-14:R2$$$V2.0” gave an isolated yield in series [2] of 18%.

These data come from publication PMC10111413 (ACS Infectious Diseases, 2023).
